“And” between values parts separate entries of the source, which are not always exact repeats. Equal entries are not always repeated. Some of the results follow. The main result of the screen is listed elsewhere. These columns were measured beside it and carry no call. Most of these compounds were active or inconclusive in the main read-out, so they are no random draw. The note in brackets gives the kind of curve behind each potency; many fits are weak.
Assay: qHTS Assay for Modulators of Lamin A Splicing
Conditions: HeLa LMNA splicing GFP/RFP minigene ratio, 48 h
Method in brief: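 Read-out is the ratio of GFP to DsRed2 object intensity, acquired by 488 nm laser-scanning cytometry on HeLa lamin A-EGFP minigene reporter cells. Compound incubation 48 hrs at 37 °C in Opti-MEM with 2% FBS; DMSO 0.5% final.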

[1] = measured here: GFP splicing reporter channel
[2] = measured here: RFP viability control channel

SMILES	AC50 [1]	AC50 [2]
Cc1nc(NCCN2CCOCC2)c2nnn(Cc3c(F)cccc3Cl)c2n1	14.1 µM [rising, partial curve, poor fit]	12.6 µM [rising, single point]
CC(=O)Nc1ccc(NC(=O)c2cccc(-c3cc4ccccc4oc3=O)c2)cc1	0.631 µM [falling, full curve]	–
CCCCNC(=O)NNC(=O)c1ccc(F)cc1	4.47 µM [falling, single point]	–
CCC(=O)N1c2ccccc2CC1C(=O)NCCc1ccccc1Cl (configuration not stated)	0.00355 µM [rising, full curve, poor fit]	–
CSCCC(NC(=O)c1ccco1)C(=O)OCC(=O)Nc1sccc1C#N (configuration not stated)	–	7.08 µM [falling, single point]
COCCn1c(=O)[nH]c(=O)c2c1nc(-c1ccc(-c3ccc(Cl)cc3[N+](=O)[O-])o1)n2Cc1ccccc1	35.5 µM [falling, single point]	–
COc1ccccc1N1CCN(CCNC(=O)Nc2cccc(C)c2C)CC1	–	14.1 µM [rising, single point]
CCN(CC)S(=O)(=O)c1ccc(C)c(NC(=O)CSc2nc3ccc(C)cc3[nH]2)c1	31.6 µM [rising, single point]	35.5 µM [rising, single point]
CC(C)(C)NC[C@H](O)COc1cccc2c1CCCC2=O	2.82 µM [falling, single point]	–
Cc1cc(C(=O)COc2cccnc2[N+](=O)[O-])c(C)n1-c1ccccc1	35.5 µM [rising, single point]	35.5 µM [rising, single point]
Fc1ccc(Sc2nc(-c3ccccc3)nnc2C(F)(F)F)cc1	35.5 µM [falling, single point]	35.5 µM [falling, single point]
Cc1ccc(Nc2nc3ccccc3s2)cc1	7.08 µM [rising, full curve, poor fit]	–
CCCC(=O)Nc1ccc2nc(SCC(=O)N3CCCC3)sc2c1	0.251 µM [falling, full curve, poor fit]	–
COc1ccc(NC(=O)N/C=C/c2ccc(Cl)cc2)cc1	–	35.5 µM [rising, single point]
O=C(COC(=O)CCN1C(=O)c2cccc([N+](=O)[O-])c2C1=O)NC1CCS(=O)(=O)C1 (configuration not stated)	17.8 µM [falling, partial curve]	7.94 µM [falling, partial curve]
CCNc1nc(Oc2c(Cl)cccc2Cl)cc(C(F)(F)F)n1	35.5 µM [falling, single point]	35.5 µM [falling, single point]
O=C(Nc1ccccc1)N1N=C(c2cccs2)CC1c1cccs1 (configuration not stated)	20 µM [rising, single point]	35.5 µM [rising, single point]
Cc1nc2nc(SCC(=O)Nc3cccc(Cl)c3)nn2c(C)c1Cc1ccccc1	15.8 µM [falling, single point]	11.2 µM [falling, partial curve, poor fit]
CN(C(=O)CSc1nc2ccc(NC(=O)c3ccccc3F)cc2s1)c1ccccc1	6.31 µM [rising, partial curve]	2 µM [rising, full curve]
C[N+](C)(C)CCOC(N)=O	20 nM [falling, full curve, poor fit] and 5.62 µM [falling, partial curve, poor fit]	–
COc1ccc2[nH]cc(S(=O)(=O)c3ccc(F)cc3)c(=O)c2c1	–	11.2 µM [rising, single point]
O=c1c2ccccc2oc2nc3ccn(Cc4ccncc4)c(=O)c3cc12	3.98 µM [falling, partial curve, poor fit]	2.51 µM [falling, partial curve, poor fit]
Cc1cc(NC(=O)COc2cccc(Oc3ccccc3)c2)no1	–	14.1 µM [rising, single point]
COC(=O)c1cccc(NC(=O)N(C)CCc2c(C)nn(C)c2C)c1	–	8.91 µM [rising, partial curve]
CCOc1ccc(C2C(=O)N(C3CCCCCC3)CC(=O)N2CCC2=CCCCC2)cc1OC (configuration not stated)	–	31.6 µM [rising, single point]
Cc1cc(C)c2c(c1)/C(=N/NC(=O)c1ccc(O)cc1)CCC2	–	3.55 µM [rising, partial curve]
Cc1ccc(Cl)cc1N1CCN(Cc2nnnn2Cc2ccco2)CC1	10 µM [rising, partial curve]	12.6 µM [rising, partial curve]

SMILES	AC50 [1]	AC50 [2]
CNc1ncnc2c1ncn2[C@@H]1O[C@H](CO)[C@H](O)[C@H]1O	–	0.00501 µM [falling, full curve, poor fit]
COc1ccc2nc(N/C(N)=N/C(=S)Nc3cccc(C)c3)nc(C)c2c1	–	31.6 µM [rising, single point]
COc1ccc(CN2CCc3nc(Nc4ccccc4)ncc3C2)c(OC)c1OC	20 µM [falling, single point]	–
CCOc1ccc2nc(N3CCC(C(=O)Nc4nnc(CC)s4)CC3)sc2c1	–	3.16 µM [rising, partial curve, poor fit]
Cc1cc(C)cc(NC(=O)C(=O)NCC(c2ccc3c(c2)OCO3)N2CCOCC2)c1 (configuration not stated)	–	35.5 µM [rising, partial curve, poor fit]
COc1ccc(Cl)cc1NC(=O)Nc1cccc([N+](=O)[O-])c1C	35.5 µM [rising, single point]	35.5 µM [rising, single point]
Cc1ccc(N2CC(NC(=O)c3ccc(S(=O)(=O)N4CCCC4)cc3)CC2=O)cc1 (configuration not stated)	0.0141 µM [falling, full curve, poor fit]	5.01 µM [falling, full curve]
Cc1ccccc1C1=NC(C(F)(F)F)(C(F)(F)F)c2c(n(-c3ccc(F)cc3)c(=O)[nH]c2=O)N1	–	5.62 µM [falling, full curve]
O=C(CCCc1ccccc1)Nc1nnc(C(F)(F)F)s1	20 µM [falling, partial curve]	–
O=c1c2nccnc2[nH]c(=S)n1Cc1ccccc1Cl	–	0.0112 µM [falling, full curve, poor fit]
CCOC(=O)c1c(NC(=O)CSc2n[nH]c(-c3ccco3)n2)sc(C)c1C	–	35.5 µM [rising, single point]
COc1ccc(CC(=O)N2CCC(c3ccccc3)C2)cc1 (configuration not stated)	2.82 µM [rising, single point]	0.00891 µM [rising, full curve, poor fit]
COc1cccc(/C=C/C(=O)c2cccc([N+](=O)[O-])c2)c1	17.8 µM [falling, partial curve]	17.8 µM [falling, partial curve]
CCCCNS(=O)(=O)c1ccc(NC(=O)Cc2ccc(OC)cc2)cc1	0.0126 µM [falling, full curve, poor fit]	–
O=C(COc1ccc([N+](=O)[O-])cc1)NCC1(N2CCOCC2)CCCCC1	39.8 µM [rising, single point]	–
COCCNc1ncnc2ccc(-c3ccccc3OC)cc12	11.2 µM [falling, partial curve, poor fit]	17.8 µM [falling, single point]
COc1ccc(NCc2nc3ccccc3n2CCOc2ccccc2)cc1	–	14.1 µM [rising, single point]
Cc1cnc(CNc2ncnc3ccc(-c4c(C)noc4C)cc23)cn1	5.01 µM [falling, partial curve]	–
Cc1cc(=O)[nH]c(/N=C(\N)Nc2ccc3c(c2)OCCO3)n1	0.00708 µM [falling, full curve, poor fit]	0.01 µM [falling, full curve, poor fit]
CC(C)c1ccc(NC(=O)C2CCN(c3nc(-c4ccc(C(C)C)cc4)no3)CC2)cc1	–	3.55 µM [falling, single point]
C/C(N)=C(/C#N)C(=O)COC(=O)c1cc(-c2ccc(Br)cc2)nc2ccccc12	0.0282 µM [falling, full curve]	–
Cc1ccc(NC(=O)c2cn3c4c(ccc(Cl)c4c2=O)OC(C)C3)c(C)c1 (configuration not stated)	10 µM [falling, partial curve]	–
COC(=O)[C@@]1(Cc2ccc(OC)cc2)[C@H]2c3cc(C(=O)N(C)C)[nH]c3C[C@H]2CN1C(=O)c1ccccc1	–	2.51 µM [falling, partial curve, poor fit]
Cc1nc2sccn2c(=O)c1CCN1CCC(=C(c2ccc(F)cc2)c2ccc(F)cc2)CC1	8.91 µM [falling, partial curve, poor fit] and 35.5 µM [rising, single point]	8.91 µM [falling, partial curve, poor fit] and 35.5 µM [falling, single point]
COc1ccc(/C=N/c2oc(-c3ccccc3)cc2C#N)cc1	–	11.2 µM [rising, partial curve]
O=C1c2ccccc2OC2(C=Cc3ccccc3O2)N1Cc1ccccc1 (configuration not stated)	17.8 µM [falling, single point]	–
COc1cc(NC(=O)Cn2ncc(Cl)c(Cl)c2=O)c(C)cc1[N+](=O)[O-]	–	35.5 µM [rising, single point]

Reprinted at random: 4 entries already listed, in no set order.
SMILES	AC50 [1]	AC50 [2]
CN(C(=O)CSc1nc2ccc(NC(=O)c3ccccc3F)cc2s1)c1ccccc1	6.31 µM [rising, partial curve]	2 µM [rising, full curve]
Cc1cc(NC(=O)COc2cccc(Oc3ccccc3)c2)no1	–	14.1 µM [rising, single point]
O=C(COc1ccc([N+](=O)[O-])cc1)NCC1(N2CCOCC2)CCCCC1	39.8 µM [rising, single point]	–
COc1ccccc1N1CCN(CCNC(=O)Nc2cccc(C)c2C)CC1	–	14.1 µM [rising, single point]

Source: PubChem BioAssay AID1487 (National Center for Advancing Translational Sciences (NCATS), 2009)
